Test results published in the supplement of paper PMC4604168 (melanoma cell lines).
The other results are listed elsewhere or left out. Many values rest on one well or one pass, so single values are uncertain.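 The apoptosis fraction was the count of cleaved-PARP antibody-stained nuclei relative to all DNA-stained nuclei, imaged in 1,536-well plates. Screening doses were set so most cells survived, and baseline and induced cleaved-PARP levels vary greatly across cell lines.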

What was measured:
Test in all cases: cleaved PARP positive nuclei fraction relative to DMSO control; melanoma cells; higher = more apoptosis
Conditions in all cases: library dose: low library concentration; 72 h
MZ2-MEL = tested on: MZ2-MEL
MeWo = tested on: MeWo
RPMI7951 = tested on: RPMI7951
RVH-421 = tested on: RVH-421
SkMel28 = tested on: SkMel28
SkMel30 = tested on: SkMel30
UACC62 = tested on: UACC62
WM115 = tested on: WM115
WM1716 = tested on: WM1716
WM1745 = tested on: WM1745
WM3526 = tested on: WM3526
WM3619 = tested on: WM3619
WM451Lu = tested on: WM451Lu
SkMel5 = tested on: SkMel5
UACC257 = tested on: UACC257
SkMel2 = tested on: SkMel2

Row | SMILES | cleaved PARP positive nuclei fraction (MZ2-MEL) [%] | cleaved PARP positive nuclei fraction (MeWo) [%] | cleaved PARP positive nuclei fraction (RPMI7951) [%] | cleaved PARP positive nuclei fraction (RVH-421) [%] | cleaved PARP positive nuclei fraction (SkMel28) [%] | cleaved PARP positive nuclei fraction (SkMel30) [%] | cleaved PARP positive nuclei fraction (UACC62) [%] | cleaved PARP positive nuclei fraction (WM115) [%] | cleaved PARP positive nuclei fraction (WM1716) [%] | cleaved PARP positive nuclei fraction (WM1745) [%] | cleaved PARP positive nuclei fraction (WM3526) [%] | cleaved PARP positive nuclei fraction (WM3619) [%] | cleaved PARP positive nuclei fraction (WM451Lu) [%] | cleaved PARP positive nuclei fraction (SkMel5) [%] | cleaved PARP positive nuclei fraction (UACC257) [%] | cleaved PARP positive nuclei fraction (SkMel2) [%]
1 | CO[C@H]1C[C@@H]2CC[C@@H](C)[C@@](O)(O2)C(=O)C(=O)N2CCCC[C@H]2C(=O)O[C@H]([C@H](C)C[C@@H]2CC[C@@H](OCCO)[C@H](OC)C2)CC(=O)[C@H](C)/C=C(\C)[C@@H](O)[C@@H](OC)C(=O)[C@H](C)C[C@H](C)/C=C/C=C/C=C/1C [everolimus] + C[As](C)SC[C@H](NC(=O)CC[C@H](N)C(=O)O)C(=O)NCC(=O)O [Darinaparsin] (first compound 0.02 µM, partner dose 0.4 µM) | 69.9 | 116 | 30.4 | 167 | 1110 | 36.1 | 604 | 181 | 51.2 | 114 | 121 | 132 | 61.4 | – | – | –
2 | C[C@]12O[C@H](C[C@]1(O)CO)n1c3ccccc3c3c4c(c5c6ccccc6n2c5c31)CNC4=O [Lestaurtinib] + Cc1cc(Nc2cc(N3CCN(C)CC3)nc(/C=C/c3ccccc3)n2)n[nH]1 [ENMD2076] (first compound 0.004 µM, partner dose 0.04 µM) | 53.1 | 199 | 77.6 | 124 | 184 | 112 | 118 | 181 | 126 | 93.6 | 48.4 | 90 | 162 | – | – | –
3 | C[C@]12O[C@H](C[C@]1(O)CO)n1c3ccccc3c3c4c(c5c6ccccc6n2c5c31)CNC4=O [Lestaurtinib] + CC(C)C[C@H](NC(=O)[C@H](Cc1ccccc1)NC(=O)c1cnccn1)B(O)O [Bortezomib] (first compound 0.004 µM, partner dose 0.001 µM) | 86 | 73.1 | 159 | 65 | 37 | 19.7 | 86.8 | 175 | 175 | 207 | 57 | 162 | 148 | – | – | –
4 | C[C@]12O[C@H](C[C@]1(O)CO)n1c3ccccc3c3c4c(c5c6ccccc6n2c5c31)CNC4=O [Lestaurtinib] + C#Cc1cccc(Nc2ncnc3cc(OCCOC)c(OCCOC)cc23)c1 [erlotinib] (first compound 0.004 µM, partner dose 0.8 µM) | 109 | 392 | 85.8 | 160 | 94.3 | 226 | 196 | 78.8 | 1130 | 101 | 251 | 105 | 76.3 | – | – | –
5 | Cc1cn(-c2cc(NC(=O)c3ccc(C)c(Nc4nccc(-c5cccnc5)n4)c3)cc(C(F)(F)F)c2)cn1 [nilotinib] + C[As](C)SC[C@H](NC(=O)CC[C@H](N)C(=O)O)C(=O)NCC(=O)O [Darinaparsin] (first compound 0.2 µM, partner dose 0.4 µM) | 69 | 38.1 | 225 | 22.4 | 42.1 | 162 | 136 | 71 | 33.8 | 108 | 46.1 | 112 | 118 | – | – | –
6 | C[As](C)SC[C@H](NC(=O)CC[C@H](N)C(=O)O)C(=O)NCC(=O)O [Darinaparsin] + Oc1nc(-c2ccc(C(F)(F)F)cc2)nc2c1CSCC2 [XAV939] (first compound 0.4 µM, partner dose 2 µM) | 226 | 100 | 135 | 24.5 | 226 | 19.3 | 55.4 | 164 | 59.6 | 136 | 56.1 | 72.5 | 58.8 | 31.4 | 89 | –
7 | NCC(=O)Nc1ccc(-n2nc(C(F)(F)F)cc2-c2ccc3c(ccc4ccccc43)c2)cc1 + C/C(O)=C(\C#N)C(=O)Nc1cc(Br)ccc1Br [LFM-A13] (first compound 1 µM, partner dose 2 µM) | 168 | 266 | 75.8 | 72.2 | 191 | 98.9 | 277 | 273 | 125 | 104 | 153 | 290 | 166 | 72.3 | 135 | –
8 | C[C@]12O[C@H](C[C@]1(O)CO)n1c3ccccc3c3c4c(c5c6ccccc6n2c5c31)CNC4=O [Lestaurtinib] + COc1ccc(COc2ccc(Cc3cnc(N)nc3N)cc2OC)cc1 [GW2580] (first compound 0.004 µM, partner dose 1 µM) | 83.5 | 73.1 | 68.1 | 72.9 | 122 | 115 | 158 | 167 | 52.7 | 96.4 | 87.3 | 90.1 | 129 | 36.9 | 214 | –
9 | C[C@]12O[C@H](C[C@]1(O)CO)n1c3ccccc3c3c4c(c5c6ccccc6n2c5c31)CNC4=O [Lestaurtinib] + Clc1ccc(Nc2nnc(Cc3ccncc3)c3ccccc23)cc1 [vatalanib] (first compound 0.004 µM, partner dose 2 µM) | 128 | 49 | 99.5 | 41.4 | 115 | 54.9 | 136 | 116 | 136 | 92 | 16 | 87.6 | 71.6 | – | – | –
10 | Oc1cc(-c2nc(-c3ccccc3)[nH]c2-c2ccncc2)ccc1Cl + C/C(O)=C(\C#N)C(=O)Nc1cc(Br)ccc1Br [LFM-A13] (first compound 0.2 µM, partner dose 2 µM) | 89.4 | 142 | 85.2 | 59.4 | 215 | 70.9 | 129 | 214 | 50.7 | 111 | 225 | 81.3 | 55.6 | 29.4 | 75.4 | –
11 | CN(NC(=O)CC(=O)NN(C)C(=S)c1ccccc1)C(=S)c1ccccc1 + Cc1cc(SCc2sc(-c3ccc(C(F)(F)F)c(F)c3)nc2C)ccc1OCC(=O)O [GW0742] (first compound 0.006 µM, partner dose 2 µM) | 85 | – | 35.4 | 60.5 | 54.4 | 36.2 | 171 | 18.8 | 4.84 | 113 | 34.3 | 77.1 | 83.9 | 90 | 40.8 | –
12 | Cn1cncc1[C@@](N)(c1ccc(Cl)cc1)c1ccc2c(c1)c(-c1cccc(Cl)c1)cc(=O)n2C [tipifarnib] + C/C(O)=C(\C#N)C(=O)Nc1cc(Br)ccc1Br [LFM-A13] (first compound 0.01 µM, partner dose 2 µM) | – | 203 | 82.2 | 65.3 | 121 | 49.3 | 68.8 | 48.4 | 152 | 88.7 | 285 | 132 | 64.8 | 184 | 94.8 | –
13 | O=C(O)C(=O)Nc1sc2c(c1C(=O)O)CCNC2 + C/C(O)=C(\C#N)C(=O)Nc1cc(Br)ccc1Br [LFM-A13] (first compound 1.66667 µM, partner dose 2 µM) | – | 107 | 44 | 57.2 | 166 | 32.3 | 105 | 54.2 | 55.7 | 148 | 115 | 92.8 | 137 | 112 | 182 | –
14 | O=C(Nc1cc(C(F)(F)F)cc(C(F)(F)F)c1)c1cc(Cl)ccc1O + C[C@]12O[C@H](C[C@]1(O)CO)n1c3ccccc3c3c4c(c5c6ccccc6n2c5c31)CNC4=O [Lestaurtinib] (first compound 0.016 µM, partner dose 0.004 µM) | 133 | 38.9 | 126 | 99.2 | 137 | 51.5 | 71.4 | 85 | 5.11 | 348 | 59.2 | 88.6 | 76.1 | – | – | –
15 | Clc1ccc(Nc2nnc(Cc3ccncc3)c3ccccc23)cc1 [vatalanib] + Cc1cc(SCc2sc(-c3ccc(C(F)(F)F)c(F)c3)nc2C)ccc1OCC(=O)O [GW0742] (first compound 2 µM, partner dose 2 µM) | – | 112 | 155 | 107 | 126 | 55.5 | 319 | 61.7 | 80.5 | 118 | 149 | 86.7 | 76.7 | 55.2 | 173 | 72.5
16 | C[C@]12O[C@H](C[C@]1(O)CO)n1c3ccccc3c3c4c(c5c6ccccc6n2c5c31)CNC4=O [Lestaurtinib] + CN(c1ncccc1CNc1nc(Nc2ccc3c(c2)CC(=O)N3)ncc1C(F)(F)F)S(C)(=O)=O [PF562271] (first compound 0.004 µM, partner dose 0.08 µM) | 55.3 | 69.6 | 61.2 | 78.8 | 85.1 | 34 | 143 | 150 | 72.8 | 98.6 | 189 | 101 | 34.6 | – | – | –
17 | COc1cc([C@@H]2c3cc4c(cc3[C@@H](O[C@@H]3O[C@@H]5CO[C@@H](C)O[C@H]5[C@H](O)[C@H]3O)[C@H]3COC(=O)[C@H]23)OCO4)cc(OC)c1O [etoposide] + N.N.[Cl][Pt][Cl] [cisplatin] (first compound 0.02 µM, partner dose 1.6 µM) | – | 99.1 | 64.1 | 119 | 93 | 126 | 82.4 | 278 | 53 | 93.5 | 97.2 | 120 | 103 | – | – | 105
18 | O=C(/C=C/c1cccnc1)NCCCCC1CCN(C(=O)c2ccccc2)CC1 + C[C@]12O[C@H](C[C@]1(O)CO)n1c3ccccc3c3c4c(c5c6ccccc6n2c5c31)CNC4=O [Lestaurtinib] (first compound 0.01 µM, partner dose 0.004 µM) | 211 | 140 | 134 | 222 | 34.7 | 59.6 | 97 | 178 | 241 | 95.4 | 91.1 | 138 | 65.8 | – | – | –

An excerpt of these results, in markdown:

| Row | SMILES | cleaved PARP positive nuclei fraction (MZ2-MEL) [%] | cleaved PARP positive nuclei fraction (MeWo) [%] | cleaved PARP positive nuclei fraction (RPMI7951) [%] | cleaved PARP positive nuclei fraction (RVH-421) [%] | cleaved PARP positive nuclei fraction (SkMel28) [%] | cleaved PARP positive nuclei fraction (SkMel30) [%] | cleaved PARP positive nuclei fraction (UACC62) [%] | cleaved PARP positive nuclei fraction (WM115) [%] | cleaved PARP positive nuclei fraction (WM1716) [%] | cleaved PARP positive nuclei fraction (WM1745) [%] | cleaved PARP positive nuclei fraction (WM3526) [%] | cleaved PARP positive nuclei fraction (WM3619) [%] | cleaved PARP positive nuclei fraction (WM451Lu) [%] | cleaved PARP positive nuclei fraction (SkMel5) [%] | cleaved PARP positive nuclei fraction (UACC257) [%] | cleaved PARP positive nuclei fraction (SkMel2) [%] |
| --- | --- | --- | --- | --- | --- | --- | --- | --- | --- | --- | --- | --- | --- | --- | --- | --- | --- |
| 4 | C[C@]12O[C@H](C[C@]1(O)CO)n1c3ccccc3c3c4c(c5c6ccccc6n2c5c31)CNC4=O [Lestaurtinib] + C#Cc1cccc(Nc2ncnc3cc(OCCOC)c(OCCOC)cc23)c1 [erlotinib] (first compound 0.004 µM, partner dose 0.8 µM) | 109 | 392 | 85.8 | 160 | 94.3 | 226 | 196 | 78.8 | 1130 | 101 | 251 | 105 | 76.3 | – | – | – |
| 5 | Cc1cn(-c2cc(NC(=O)c3ccc(C)c(Nc4nccc(-c5cccnc5)n4)c3)cc(C(F)(F)F)c2)cn1 [nilotinib] + C[As](C)SC[C@H](NC(=O)CC[C@H](N)C(=O)O)C(=O)NCC(=O)O [Darinaparsin] (first compound 0.2 µM, partner dose 0.4 µM) | 69 | 38.1 | 225 | 22.4 | 42.1 | 162 | 136 | 71 | 33.8 | 108 | 46.1 | 112 | 118 | – | – | – |
